Measurements reported in US10487349B2, “Use of a fluidic device” (GRADIENTECH AB, priority 2013, dated 2019).
In brackets after ≈: the same amount, converted by molar mass.

Tested on: E. coli K12 MG1655
Assay: Microfluidic 3D culture matrix concentration-gradient antibiotic susceptibility test (CELLDIRECTOR Ruby)
Assay type: cell-based
Settings: Escherichia coli; E. coli K12 MG1655 in agarose 3D culture matrix, linear gradient of ampicillin 20-0 μg/ml, Mueller-Hinton medium, 37° C., read from light intensity profile; read-out: minimum inhibitory concentration (MIC)
Description: Bacterium strain E. coli K12 MG1655 was cultured on a Luria broth (LB) plate. The E. coli cells were diluted by phosphate buffered saline (PBS) to OD600=0.1 as measured by a MULTISKAN® FC Microplate Photometer (Thermo Scientific). Same volumes of PBS with OD600=0.1 cells and low-melting temperature agarose were mixed together. A pipette with white tips was used to suck up 8 μl of the mixture and inject the mixture into the culture chamber of a microfluidic device CELLDIRECTOR® Ruby (Gradientech AB), see upper panel in FIG. 20. The fluid channel inputs of the microfluidic device were connected to fluid reservoirs comprising Muelle-Hinton medium and where one of the reservoirs also contained 20 μg/ml ampicillin. The speed of a pusher used to draw the medium into the fluid channels was set to 5 μl/min for 30 minutes and then to 2 μl/min for the rest of the time. […]
The pictures were cut to match a selected central portion of the culture chamber, see black box in FIGS. 17A and 18A. Image processing software was used to extract detected light intensity data from the pictures. A spatial growth situation distribution diagram was used to summarize the grey-scale values, i.e. detected light intensity values, of all the lines that are perpendicular to the direction of the gradient as the Y-axis with the concentration gradient as the X-axis. […]

- MIC: 5 µg/mL (≈ 14.3 µM)
SMILES: CC1(C)S[C@@H]2[C@H](NC(=O)[C@H](N)c3ccccc3)C(=O)N2[C@H]1C(=O)O [ampicillin]
